Assay: Membrane compatibility, simulated exposure soak, clean water flux and salt rejection (Example 4)
Settings: Koch HRX, PFA 300 ppm, 77 F, 2000 ppm NaCl
Experimental: The effects of PFA on reverse osmosis members which contain a polyamide structure in comparison with known control chemicals were tested. Three different membranes were tested including Koch HRX, Hydranautics CPA5 and Hydranautics ESPA2+. Membranes were soaked in duplicate, in chemistries according to Table 4.
Membranes were then conditioned in Ultrasil 110 at a pH of 11 for 90 minutes at 50° C., followed by a rinse in DI water.
Each of the chemistries, with the exception of PFA was refreshed daily. PFA was refreshed hourly. After the simulated exposure the membranes are rinsed with DI water and placed on the Flat Sheet Membrane skid (Model M20). The membranes were rinsed with DI water for 24 hours at standard UF pressure and temperature. Once 24 hours was completed the membranes were subjected to alkaline conditioning step until solution pH is 11. 15.14 grams of NaCl was added to the recirculating water (2000 ppm NaCl) and the system was allowed to continue circulating. The conductivity of each permeate tube and feed was then measured and recorded and shown as percent rejection. The percent rejection was determined by (conductivity of the feed−conductivity of the permeate)/(conductivity of the feed).

O=COO [PFA, peroxyformic acid]
Salt Rejection (%) PFA 1 YR (simulated 1 year, 78 hr soak): 91.26%
Salt Rejection (%) PFA 3 YR (simulated 3 years, 234 hr soak): 87.50%

Reference: patent publication US12382955B2, “Peroxyformic acid compositions for membrane filtration cleaning in energy services” (priority 2016, dated 2025)
